The text below walks through data of article PMC7064442.

The chains behind the UniProt entries cited, without tags or fusion partners.
UniProt Q80U70: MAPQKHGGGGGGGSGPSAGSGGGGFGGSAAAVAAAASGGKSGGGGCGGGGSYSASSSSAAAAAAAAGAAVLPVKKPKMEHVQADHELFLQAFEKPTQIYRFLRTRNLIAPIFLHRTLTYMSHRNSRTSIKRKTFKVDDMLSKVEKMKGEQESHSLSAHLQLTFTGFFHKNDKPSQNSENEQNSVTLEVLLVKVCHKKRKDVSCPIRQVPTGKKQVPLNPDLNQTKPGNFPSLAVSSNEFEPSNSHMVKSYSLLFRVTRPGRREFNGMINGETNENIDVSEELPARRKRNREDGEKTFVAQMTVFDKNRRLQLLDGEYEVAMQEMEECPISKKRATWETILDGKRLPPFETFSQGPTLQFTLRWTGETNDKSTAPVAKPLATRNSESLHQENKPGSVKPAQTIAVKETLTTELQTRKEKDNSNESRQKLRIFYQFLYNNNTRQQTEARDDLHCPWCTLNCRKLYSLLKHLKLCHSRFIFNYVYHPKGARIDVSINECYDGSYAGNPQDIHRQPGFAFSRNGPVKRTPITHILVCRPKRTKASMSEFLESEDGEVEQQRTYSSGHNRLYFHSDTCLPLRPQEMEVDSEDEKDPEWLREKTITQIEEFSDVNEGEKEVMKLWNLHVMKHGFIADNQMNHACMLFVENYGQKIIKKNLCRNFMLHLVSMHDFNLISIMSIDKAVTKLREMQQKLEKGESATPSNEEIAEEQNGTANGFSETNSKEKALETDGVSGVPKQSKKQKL
UniProt O09106: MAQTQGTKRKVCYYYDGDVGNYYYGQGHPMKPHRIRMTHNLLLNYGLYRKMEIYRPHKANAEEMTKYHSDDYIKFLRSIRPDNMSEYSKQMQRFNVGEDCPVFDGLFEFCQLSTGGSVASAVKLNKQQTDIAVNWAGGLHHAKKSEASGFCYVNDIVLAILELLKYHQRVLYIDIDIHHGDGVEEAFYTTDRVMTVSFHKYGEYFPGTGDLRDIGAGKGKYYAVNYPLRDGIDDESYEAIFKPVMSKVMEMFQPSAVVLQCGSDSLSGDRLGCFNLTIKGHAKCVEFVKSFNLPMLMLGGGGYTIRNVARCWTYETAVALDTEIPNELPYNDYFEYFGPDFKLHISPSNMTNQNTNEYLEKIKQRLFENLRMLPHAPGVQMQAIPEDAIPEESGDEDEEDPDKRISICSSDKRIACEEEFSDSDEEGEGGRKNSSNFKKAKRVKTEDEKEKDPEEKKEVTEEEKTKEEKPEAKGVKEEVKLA

No constants are given. Whether binding was seen depends on the method and setting. In cells and extracts the contact can be indirect. Some binding calls cover weakened binding; strength is not graded here.

In this assay the target is SUZ12 (PRC2 member) (mouse (endogenous in MEFs)) (UniProt Q80U70). The assay can be described thus: co-IP; data not shown: IP with anti-SUZ12 from MEFs, HDAC1 detected; enriched in DNMT3L-expressing MEFs.

Consider HDAC1 (from UniProt O09106 1-482), for which the binding entry is listed as “binds”.
